Taken from: PubChem BioAssay AID504774 (Drosophila RNAi Screening Center, 2011)

Test: 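Fly genes whose loss alters survival after alkylation damage to DNA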 (primary screen)
System: Drosophila Kc167 cells
Knock-down reagent: long dsRNA against Drosophila genes, about 0.25 µg dsRNA per well
Timing: about 6 days: 3 days knock-down, then 3 days with or without MMS
Challenge: methyl methanesulphonate 0.004% (w/v) for 3 days after knock-down
Detection: 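Viability in wells given MMS, read as ATP luminescence, normalised by quantiles plate by plate and averaged across replicates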
Direction: mean viability with MMS and viability with MMS: higher = more surviving cells after MMS
The screen tested about 23,000 reagents; below is an unselected part of those that have a named target and a result. 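Values are quantile-normalised luminescence on an arbitrary scale; higher means more cells surviving MMS.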 Reagents against one gene are numbered here. A plus sign joins genes that one reagent is predicted to hit. Not all columns of the deposit are shown.

Target gene	reagent	mean viability with MMS	viability with MMS, replicate 1
mub	1	3.51e6	3.98e6
Ptp36E	1	3.40e6	3.87e6
CG1792	1	3.61e6	4.09e6
CG4953	1	3.66e6	4.38e6
CG5509	1	3.46e6	3.89e6
esc	1	3.66e6	4.08e6
CG34188	1	3.48e6	4.02e6
CG13223	1	3.51e6	3.93e6
cerv	1	3.52e6	4.07e6
CG33080	1	3.50e6	4.09e6
CG33080	2	3.58e6	4.15e6
CG33080	3	3.77e6	3.95e6
CG2887	1	3.38e6	3.90e6
ara	1	2.93e6	3.45e6
ara	2	3.53e6	4.03e6
CG15546	1	3.42e6	3.87e6
CG15546	2	3.46e6	4.07e6
salt	1	3.50e6	3.98e6
CG34288	1	3.38e6	3.80e6
CG13678	1	1.98e6	3.96e6
Nadk1a	1	3.63e6	4.07e6
Nadk1a	2	3.95e6	4.32e6
CG8155	1	3.72e6	4.24e6
CG8155	2	3.40e6	3.94e6
Spn28F	1	3.65e6	4.03e6
Sply	1	2.07e6	4.29e6
CG3862	1	3.68e6	4.00e6
ND-75	1	3.36e6	3.80e6
e(y)2b	1	3.69e6	4.11e6
CG3091	1	3.50e6	3.83e6
g	1	3.39e6	3.87e6
Mst84Dc	1	3.59e6	3.84e6
nuf	1	3.57e6	4.12e6
nuf	2	3.11e6	3.76e6
nuf	3	3.76e6	4.20e6
Ass + CG31286	1	3.56e6	4.10e6
CG18371	1	3.49e6	3.99e6
Gr9a	1	3.65e6	4.08e6
CG13376	1	3.58e6	4.02e6
Prosalpha4	1	3.39e6	3.90e6
sphinx2	1	3.60e6	4.06e6
Nepl19	1	2.03e6	4.18e6
Nct	1	3.37e6	3.75e6
TwdlP	1	3.58e6	4.06e6
lectin-29Ca	1	3.58e6	4.10e6
CG13575	1	3.68e6	4.19e6
CG13575	2	3.35e6	3.86e6
CG4563	1	3.58e6	4.00e6
hng3	1	3.51e6	3.96e6
Naa40	1	3.69e6	4.24e6
alpha4GT1	1	3.68e6	4.14e6
CG6051	1	3.70e6	4.26e6
CG15152	1	3.44e6	3.86e6
HisRS	1	3.21e6	3.57e6
CG14130	1	3.66e6	4.32e6
CG6656	1	3.46e6	3.97e6
Ets21C	1	3.58e6	4.09e6
CG1299	1	3.57e6	4.00e6
CG10543	1	3.32e6	3.71e6
CG10543	2	3.55e6	4.18e6
Mhcl	1	3.42e6	3.95e6
Mhcl	2	3.46e6	3.97e6
Mhcl	3	3.50e6	4.09e6
Syx1A	1	3.49e6	3.89e6
Syx1A	2	3.38e6	3.88e6
Su(var)2-10	1	3.35e6	3.75e6
Fs(2)Ket	1	2.35e6	3.17e6
Fili	1	3.47e6	3.91e6
Fili	2	3.48e6	4.02e6
Fili	3	3.64e6	4.15e6

Just “viability with MMS, replicate 1”, for 3 of the entries above:
e(y)2b = 4.11e6
CG3091 = 3.83e6
g = 3.87e6
